# Results are given in words; binding and its absence hold for the method and conditions named. Binding seen in cells or lysates may run through a third protein. Some binding calls cover weakened binding; strength is not graded here.
# Amino acid sequences for entries named in this document (tags omitted).
# UniProt Q13148: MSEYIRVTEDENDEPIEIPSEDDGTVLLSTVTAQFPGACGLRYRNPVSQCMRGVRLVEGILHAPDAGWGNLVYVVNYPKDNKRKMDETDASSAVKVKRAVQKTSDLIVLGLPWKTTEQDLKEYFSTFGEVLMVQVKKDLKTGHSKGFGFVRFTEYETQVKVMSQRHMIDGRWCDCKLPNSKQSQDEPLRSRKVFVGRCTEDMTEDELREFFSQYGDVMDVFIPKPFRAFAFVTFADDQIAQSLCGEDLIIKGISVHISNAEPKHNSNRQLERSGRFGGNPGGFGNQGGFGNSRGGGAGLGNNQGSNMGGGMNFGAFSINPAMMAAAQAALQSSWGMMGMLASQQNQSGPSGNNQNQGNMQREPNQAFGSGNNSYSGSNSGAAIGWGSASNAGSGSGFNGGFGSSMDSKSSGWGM
# UniProt P39687: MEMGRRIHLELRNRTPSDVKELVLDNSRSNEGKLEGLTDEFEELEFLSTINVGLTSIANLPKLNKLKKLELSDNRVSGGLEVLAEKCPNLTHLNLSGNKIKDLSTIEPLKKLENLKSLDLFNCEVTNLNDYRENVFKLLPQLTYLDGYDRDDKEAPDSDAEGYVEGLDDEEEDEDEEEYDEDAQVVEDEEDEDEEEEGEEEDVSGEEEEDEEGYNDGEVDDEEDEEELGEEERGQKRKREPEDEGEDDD
# UniProt Q92688: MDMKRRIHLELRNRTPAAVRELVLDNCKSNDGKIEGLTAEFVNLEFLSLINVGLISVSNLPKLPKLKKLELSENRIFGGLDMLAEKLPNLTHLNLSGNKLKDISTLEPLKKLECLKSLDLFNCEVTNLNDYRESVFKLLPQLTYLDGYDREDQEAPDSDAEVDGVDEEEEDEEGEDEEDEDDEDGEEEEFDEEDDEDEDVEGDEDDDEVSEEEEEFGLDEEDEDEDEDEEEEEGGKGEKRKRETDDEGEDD
# UniProt P62491: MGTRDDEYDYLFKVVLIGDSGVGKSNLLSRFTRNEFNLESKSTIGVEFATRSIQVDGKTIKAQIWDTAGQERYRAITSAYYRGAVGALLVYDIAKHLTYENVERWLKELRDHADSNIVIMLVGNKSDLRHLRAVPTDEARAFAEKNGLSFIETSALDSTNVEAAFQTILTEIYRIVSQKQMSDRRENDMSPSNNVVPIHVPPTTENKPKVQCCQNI
# UniProt P15682: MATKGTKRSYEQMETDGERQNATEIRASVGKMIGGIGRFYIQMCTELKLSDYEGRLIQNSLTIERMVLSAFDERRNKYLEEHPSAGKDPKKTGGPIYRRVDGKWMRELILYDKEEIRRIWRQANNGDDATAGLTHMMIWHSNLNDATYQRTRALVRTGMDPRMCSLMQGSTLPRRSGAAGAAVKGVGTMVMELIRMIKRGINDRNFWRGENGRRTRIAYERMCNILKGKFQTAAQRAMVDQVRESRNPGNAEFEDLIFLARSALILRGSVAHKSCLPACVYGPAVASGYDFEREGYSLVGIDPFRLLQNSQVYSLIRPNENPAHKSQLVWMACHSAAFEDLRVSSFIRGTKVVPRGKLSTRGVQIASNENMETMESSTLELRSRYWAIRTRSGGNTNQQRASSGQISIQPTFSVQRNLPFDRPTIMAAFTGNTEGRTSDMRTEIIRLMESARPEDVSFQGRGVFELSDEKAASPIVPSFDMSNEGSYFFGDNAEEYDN
# UniProt P05777: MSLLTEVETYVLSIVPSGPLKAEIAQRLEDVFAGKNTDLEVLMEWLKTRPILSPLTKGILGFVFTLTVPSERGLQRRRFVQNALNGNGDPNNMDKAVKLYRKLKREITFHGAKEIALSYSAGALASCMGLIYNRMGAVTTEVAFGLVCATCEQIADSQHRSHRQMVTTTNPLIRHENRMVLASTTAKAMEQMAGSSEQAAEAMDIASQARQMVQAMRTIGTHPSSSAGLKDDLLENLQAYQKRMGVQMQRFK
# UniProt P03427: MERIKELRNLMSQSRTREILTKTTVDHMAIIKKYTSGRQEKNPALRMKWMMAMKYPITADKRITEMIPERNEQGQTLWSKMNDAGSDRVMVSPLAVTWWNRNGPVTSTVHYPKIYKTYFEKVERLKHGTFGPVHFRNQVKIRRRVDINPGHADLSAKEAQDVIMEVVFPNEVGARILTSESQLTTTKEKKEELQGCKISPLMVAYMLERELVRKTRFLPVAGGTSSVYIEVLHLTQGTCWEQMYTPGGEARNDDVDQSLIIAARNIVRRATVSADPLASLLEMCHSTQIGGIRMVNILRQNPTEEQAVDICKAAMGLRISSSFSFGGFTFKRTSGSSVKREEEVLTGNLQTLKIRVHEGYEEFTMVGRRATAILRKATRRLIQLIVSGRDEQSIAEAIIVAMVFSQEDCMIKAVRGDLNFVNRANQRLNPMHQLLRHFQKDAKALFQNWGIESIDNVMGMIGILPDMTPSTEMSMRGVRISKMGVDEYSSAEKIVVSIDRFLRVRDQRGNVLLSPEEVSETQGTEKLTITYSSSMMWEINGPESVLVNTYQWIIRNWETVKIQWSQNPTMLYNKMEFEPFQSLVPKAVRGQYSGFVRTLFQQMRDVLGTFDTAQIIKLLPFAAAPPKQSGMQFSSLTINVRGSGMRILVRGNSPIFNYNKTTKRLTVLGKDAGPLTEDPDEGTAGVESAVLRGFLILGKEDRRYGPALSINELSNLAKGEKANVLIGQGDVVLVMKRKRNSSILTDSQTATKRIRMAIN
# Tests used:
# [1] = target: T1, KHSRP (human (endogenous in infected human lung epithelial cells)) (UniProt Q92945)
# T1 sequence: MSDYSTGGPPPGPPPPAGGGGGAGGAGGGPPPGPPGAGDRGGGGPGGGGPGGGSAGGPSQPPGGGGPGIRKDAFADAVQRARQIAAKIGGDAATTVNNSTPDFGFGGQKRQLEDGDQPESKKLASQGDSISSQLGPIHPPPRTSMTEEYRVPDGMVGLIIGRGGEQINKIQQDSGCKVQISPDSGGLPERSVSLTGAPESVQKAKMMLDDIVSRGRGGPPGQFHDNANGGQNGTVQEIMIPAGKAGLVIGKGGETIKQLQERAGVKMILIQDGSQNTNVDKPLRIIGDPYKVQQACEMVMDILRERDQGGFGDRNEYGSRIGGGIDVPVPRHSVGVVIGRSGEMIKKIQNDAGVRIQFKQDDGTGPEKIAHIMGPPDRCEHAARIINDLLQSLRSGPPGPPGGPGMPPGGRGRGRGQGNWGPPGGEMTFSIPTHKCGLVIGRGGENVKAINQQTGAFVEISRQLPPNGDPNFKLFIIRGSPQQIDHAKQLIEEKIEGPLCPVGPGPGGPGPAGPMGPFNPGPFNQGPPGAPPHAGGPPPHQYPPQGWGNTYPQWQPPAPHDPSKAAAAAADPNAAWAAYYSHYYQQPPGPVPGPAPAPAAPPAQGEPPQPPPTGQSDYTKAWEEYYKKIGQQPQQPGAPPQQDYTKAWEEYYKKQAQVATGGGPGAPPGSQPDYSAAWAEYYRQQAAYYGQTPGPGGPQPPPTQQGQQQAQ
# [2] = target: TDP-43 (TARDBP) (human (endogenous in infected human lung epithelial cells)) (UniProt Q13148)
# [3] = target: T2, NONO (paraspeckle core protein, DBHS family) (human (endogenous in A549)) (UniProt Q15233); test: co-IP
# T2 sequence: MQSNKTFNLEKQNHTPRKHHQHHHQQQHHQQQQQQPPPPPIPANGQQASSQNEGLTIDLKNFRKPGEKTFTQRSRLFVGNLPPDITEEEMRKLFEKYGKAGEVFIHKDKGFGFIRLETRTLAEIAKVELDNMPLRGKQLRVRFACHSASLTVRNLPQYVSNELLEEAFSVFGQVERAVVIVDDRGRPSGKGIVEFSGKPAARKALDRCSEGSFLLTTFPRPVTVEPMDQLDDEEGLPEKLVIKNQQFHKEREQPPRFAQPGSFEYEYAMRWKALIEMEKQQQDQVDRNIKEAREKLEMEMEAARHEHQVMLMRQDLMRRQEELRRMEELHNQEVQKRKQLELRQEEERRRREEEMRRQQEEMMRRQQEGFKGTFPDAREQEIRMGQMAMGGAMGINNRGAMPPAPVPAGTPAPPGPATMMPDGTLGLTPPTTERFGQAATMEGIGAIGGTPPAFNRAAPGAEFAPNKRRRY
# [4] = target: T3, SFPQ (paraspeckle core protein, DBHS family) (human (endogenous in A549)) (UniProt P23246); test: co-IP
# T3 sequence: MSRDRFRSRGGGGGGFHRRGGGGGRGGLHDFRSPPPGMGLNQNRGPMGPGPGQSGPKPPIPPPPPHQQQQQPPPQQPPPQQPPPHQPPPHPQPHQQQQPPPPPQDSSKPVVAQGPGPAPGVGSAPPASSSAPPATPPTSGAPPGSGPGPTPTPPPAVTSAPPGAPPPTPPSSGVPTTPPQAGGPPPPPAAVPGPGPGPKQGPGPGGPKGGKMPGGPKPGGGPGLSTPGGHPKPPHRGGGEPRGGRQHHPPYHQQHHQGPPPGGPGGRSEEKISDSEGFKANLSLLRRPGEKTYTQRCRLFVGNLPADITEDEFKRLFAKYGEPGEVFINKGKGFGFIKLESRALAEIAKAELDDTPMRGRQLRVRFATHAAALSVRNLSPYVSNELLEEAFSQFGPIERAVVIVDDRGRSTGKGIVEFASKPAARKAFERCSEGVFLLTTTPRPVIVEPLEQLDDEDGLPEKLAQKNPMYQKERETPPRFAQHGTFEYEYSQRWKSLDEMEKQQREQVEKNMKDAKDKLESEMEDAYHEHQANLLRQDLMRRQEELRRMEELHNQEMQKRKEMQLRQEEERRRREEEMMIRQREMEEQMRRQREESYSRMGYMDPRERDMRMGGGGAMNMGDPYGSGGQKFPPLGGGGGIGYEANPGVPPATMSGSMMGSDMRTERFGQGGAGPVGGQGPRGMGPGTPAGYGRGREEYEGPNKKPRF
# [5] = target: ANP32A (human (endogenous in infected human lung epithelial cells)) (UniProt P39687)
# [6] = target: ANP32B (human (endogenous in infected human lung epithelial cells)) (UniProt Q92688)
# [7] = target: RAB11A (human (endogenous in infected human lung epithelial cells)) (UniProt P62491)
substance,measurement,setting,value
NP (influenza A virus nucleoprotein) (from UniProt P15682 1-498),binding,[1],binds
same,binding,[2],binds
same,binding,[3],binds
same,binding,[4],binds
M1 (influenza A virus matrix protein 1) (from UniProt P05777 1-252),binding,[5],binds
same,binding,[6],binds
PB2 (influenza A virus RNA-dependent RNA polymerase subunit) (from UniProt P03427 1-759),binding,[7],binds

# From publication doi:10.1101/2025.03.09.642134
